Test results from patent publication US9883691B2, “Food and beverage products containing 1,3-propanediol and methods of modifying flavor release using 1,3-propanediol” (Kraft Foods Group Brands LLC, priority 2012, dated 2018).

Assay: Triangle test for detection of 1,3-propanediol flavor (Example 6)
Conditions: for tasters identifying 1,3-propanediol in a triangle test: four tasters

## OCCCO [1,3-propanediol]
Samples A and B: water vs 0.14 grams 1,3-propanediol in 99.86 grams water
  tasters identifying 1,3-propanediol in a triangle test: Only one of the four tasters could identify
Samples C and D: 10 grams sucrose in water without/with 0.14 grams 1,3-propanediol
  tasters identifying 1,3-propanediol in a triangle test: only one taster identifying
Water or sucrose sweetened beverages
  detectability of flavor at low levels: generally not detectable at low levels
